Source: the supplement of paper PMC6078165

Tested on: HCC1143
Test: relative JC-1 red fluorescence (viability) vs pre-drug, coculture with fibroblast (fraction); higher = more viable cancer cells
Description: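 JC-1 labelled TNBC cells cocultured 1:1 (1,500 cells each) with CellTrace Violet stained primary or stromal fibroblasts in 384-well plates in FluoroBrite medium, treated with one of 42 anticancer drugs at 0.1, 1, 10 or 100 uM. JC-1 red fluorescence (mitochondrial integrity in cancer cells only) was read by plate reader every 8 h for 72 h. Values are normalised to each well's pre-drug value. The stock of one drug was tenfold lower, so its dose labels may be too high.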

CN(C)CCOc1ccc(/C(=C(/CCCl)c2ccccc2)c2ccccc2)cc1 [Toremifene]
relative JC-1 red fluorescence
Settings | 8 h | 16 h | 24 h | 32 h | 40 h | 48 h | 56 h | 64 h | 72 h
0.1 µM, coculture fibroblast: C12385 | 0.8412 | 0.7617 | 0.6791 | 0.6063 | 0.536 | 0.476 | 0.429 | 0.383 | 0.359
0.1 µM, coculture fibroblast: H6013 | 0.754 | 0.663 | 0.621 | 0.6044 | 0.5413 | 0.52572 | 0.48998 | 0.4717 | 0.44
0.1 µM, coculture fibroblast: H6019 | 0.792 | 0.727 | 0.676 | 0.612 | 0.565 | 0.534 | 0.483 | 0.446 | 0.412
0.1 µM, coculture fibroblast: H6076 | 0.807 | 0.807 | 0.76 | 0.712 | 0.655 | 0.632 | 0.599 | 0.567 | 0.577
0.1 µM, coculture fibroblast: H6231 | 0.852 | 0.8026 | 0.7419 | 0.673 | 0.637 | 0.611 | 0.572 | 0.531 | 0.508
0.1 µM, coculture fibroblast: HADF | 0.801 | 0.736 | 0.704 | 0.701 | 0.6 | 0.567 | 0.527 | 0.498 | 0.488
0.1 µM, coculture fibroblast: HCFa | 0.795 | 0.734 | 0.688 | 0.658 | 0.579 | 0.55 | 0.507 | 0.47 | 0.435
0.1 µM, coculture fibroblast: HCPF | 0.8341 | 0.7948 | 0.741 | 0.683 | 0.6337 | 0.6023 | 0.563 | 0.534 | 0.5251
0.1 µM, coculture fibroblast: HHSteC | 0.817 | 0.723 | 0.683 | 0.645 | 0.569 | 0.545 | 0.5 | 0.469 | 0.438
0.1 µM, coculture fibroblast: HMF | 0.799 | 0.863 | 0.781 | 0.702 | 0.685 | 0.644 | 0.605 | 0.562 | 0.529
0.1 µM, coculture fibroblast: HPFa | 0.9011 | 0.796 | 0.754 | 0.672 | 0.614 | 0.584 | 0.517 | 0.47 | 0.439
0.1 µM, coculture fibroblast: HUF | 0.8507 | 0.7809 | 0.72 | 0.643 | 0.595 | 0.559 | 0.506 | 0.47 | 0.442
0.1 µM, coculture fibroblast: Hs5 | 0.865 | 0.886 | 0.8484 | 0.815 | 0.746 | 0.71 | 0.677 | 0.643 | 0.633
0.1 µM, coculture fibroblast: Hs27A | 0.736 | 0.641 | 0.6 | 0.622 | 0.499 | 0.478 | 0.431 | 0.401 | 0.386
0.1 µM, coculture fibroblast: Hs343T | 0.831 | 0.859 | 0.821 | 0.747 | 0.727 | 0.685 | 0.643 | 0.615 | 0.601
0.1 µM, coculture fibroblast: WS1 | 0.842 | 0.79 | 0.732 | 0.673 | 0.631 | 0.613 | 0.5754 | 0.5533 | 0.534
1 µM, coculture fibroblast: C12385 | 0.8573 | 0.7777 | 0.694 | 0.619 | 0.553 | 0.511 | 0.4617 | 0.424 | 0.402
1 µM, coculture fibroblast: H6013 | 0.793 | 0.6955 | 0.67 | 0.658 | 0.573 | 0.552 | 0.522 | 0.494 | 0.459
1 µM, coculture fibroblast: H6019 | 0.835 | 0.76 | 0.729 | 0.665 | 0.63 | 0.602 | 0.563 | 0.522 | 0.489
1 µM, coculture fibroblast: H6076 | 0.8229 | 0.879 | 0.821 | 0.7497 | 0.728 | 0.703 | 0.671 | 0.643 | 0.637
1 µM, coculture fibroblast: H6231 | 0.847 | 0.847 | 0.7676 | 0.661 | 0.675 | 0.643 | 0.606 | 0.56 | 0.534
1 µM, coculture fibroblast: HADF | 0.774 | 0.706 | 0.656 | 0.673 | 0.568 | 0.528 | 0.496 | 0.466 | 0.473
1 µM, coculture fibroblast: HCFa | 0.796 | 0.698 | 0.6622 | 0.65 | 0.563 | 0.53 | 0.487 | 0.452 | 0.434
1 µM, coculture fibroblast: HCPF | 0.84 | 0.828 | 0.779 | 0.715 | 0.693 | 0.664 | 0.623 | 0.583 | 0.569
1 µM, coculture fibroblast: HHSteC | 0.804 | 0.714 | 0.655 | 0.6174 | 0.5363 | 0.494 | 0.4494 | 0.422 | 0.3987
1 µM, coculture fibroblast: HMF | 0.837 | 0.866 | 0.8 | 0.726 | 0.708 | 0.688 | 0.657 | 0.624 | 0.608
1 µM, coculture fibroblast: HPFa | 0.949 | 0.8572 | 0.815 | 0.736 | 0.654 | 0.628 | 0.568 | 0.515 | 0.464
1 µM, coculture fibroblast: HUF | 0.9218 | 0.8539 | 0.77805 | 0.717 | 0.676 | 0.6504 | 0.609 | 0.574 | 0.552
1 µM, coculture fibroblast: Hs5 | 0.8486 | 0.863 | 0.817 | 0.765 | 0.701 | 0.671 | 0.636 | 0.608 | 0.589
1 µM, coculture fibroblast: Hs27A | 0.769 | 0.695 | 0.663 | 0.681 | 0.551 | 0.527 | 0.47 | 0.429 | 0.407
1 µM, coculture fibroblast: Hs343T | 0.822 | 0.854 | 0.777 | 0.69 | 0.672 | 0.63 | 0.567 | 0.53 | 0.499
1 µM, coculture fibroblast: WS1 | 0.854 | 0.773 | 0.716 | 0.642 | 0.579 | 0.534 | 0.491 | 0.453 | 0.433

Values are relative to the signal before dosing, not to a vehicle control; the signal also falls without drug.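 Labels refer to human fibroblasts, largely primary: uterine (C12385, HUF), lung (H6013), bone (Hs27A), adrenal (HADF), skin (WS1), plus mammary HMF and breast cancer-associated Hs343T. Cancer lines are basal-like or mesenchymal-like triple-negative breast cancer. The paper counts as hits responses shifting over 3x the replicate standard deviation. The tissue of the other fibroblasts is not given here.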
